# Test results from patent publication US8802631B2, “Peptides and methods for the treatment of gliomas and other cancers” (Ludwig Institute for Cancer Research Ltd., priority 2007, dated 2014).
# For at least one compound, name, drawing or mass did not settle the structure.
# Experiments:
# Assay type in all cases: cell-based, human
# Akt = assay: Western blot of phospho-Akt in A172 cell lysates; conditions: inhibitor added 10 minutes prior to STI1
# Erk = assay: Western blot of phospho-Erk in A172 cell lysates
# A172 cells = assay: [3H]-thymidine incorporation proliferation assay in A172 cells; conditions: 24 hr
SMILES,effect of co-treatment on STI1-induced Akt activation (Akt),"duration of Erk activity induced by the PI3K inhibitor alone (Erk; LY294002 alone for 5, 35 and 60 minutes)",effect of co-treatment on STI1-induced Erk activation (Erk; inhibitor added 10 minutes prior to STI1),effect of inhibitor on STI1-induced proliferation (A172 cells; U0126 10 μM or LY294002 5 μM added 10 minutes before STI1 170 nM),"DNA synthesis (thymidine incorporation) versus control (A172 cells; forskolin 10 μM, serum-free media)"
O=c1cc(N2CCOCC2)oc2c(-c3ccccc3)cccc12 [LY294002],abolished,lasting for at least one hour,increase in the phosphorylation of Erk,completely abolished STI1-induced proliferation,
C=C[C@@]1(C)CC(=O)[C@]2(O)[C@@]3(C)[C@@H](O)CCC(C)(C)[C@@H]3[C@H](O)[C@H](OC(C)=O)[C@@]2(C)O1 [forskolin],,,,,marked decrease in DNA synthesis
